Data as given in patent US10617664B2, “Brain derived PPARα ligands” (Rush University Medical Center, priority 2015, dated 2020).
At least one compound was matched to its structure with a doubt left.

Test system: PPRE-driven luciferase activity
Assay: PPRE-luciferase assay in Ppara-null astrocytes transduced with Ppara constructs
Format: cell-based, mouse
Settings: Ppara-null astrocytes (empty vector)
Protocol: Astrocytes plated at 60-70% confluence were transfected with tk-PPREx3-Luc, a PPRE-dependent luciferase reporter construct. After 24 h of transfection, cells were treated with different concentrations of HEX (FIG. 10A), OCT (FIG. 10B) and HMB (FIG. 10C) for 4 h followed by monitoring luciferase activity. Under similar experimental condition, MTT was performed to understand the effect of these ligands on cell viability (FIG. 10D, HEX; FIG. 10E, OCT; FIG. 10F, HMB). Results are mean±SD of three independent experiments. ^ap<0.001 vs. control. Ppara-null astrocytes were transduced with lentivirions containing empty vector (FIG. 10G), FL-Ppara (FIG. 10H), Y314D-Ppara (FIG. 10I), Y464D-Ppara (FIG. 10J), and Y314D/Y464D-Ppara (FIG. 10K) for 48 h followed by transfection with tk-PPREx3-Luc. After 24 h of transfection, cells were treated with different doses of HEX, OCT and HMB for 4 h followed by monitoring luciferase activity. PPRE luciferase activity was assayed in Ppara-null astrocytes transduced with lentivirions containing empty vector (FIG. 10L), FL-Ppara (FIG. 10M), Y314D-Ppara (FIG. 10N), Y464D-Ppara (FIG. 10O), and Y314D/Y464D-Ppara (FIG. 10P) after treatment with different doses of WY14643, fenofibrate, and clofibrate. […]

Compound	PPRE-driven luciferase activity
CCOC(=O)C(C)(C)Oc1ccc(Cl)cc1 [clofibrate, reference compound]	unable to induce
CC(C)OC(=O)C(C)(C)Oc1ccc(C(=O)c2ccc(Cl)cc2)cc1 [fenofibrate, reference compound]	unable to induce
